Binding data for eight molecules are collected here from publication PMC5660093, “Structure of SgK223 pseudokinase reveals novel mechanisms of homotypic and heterotypic association” (Nature Communications, 2017).

In one experiment the target is SgK223-PsK-Cter (human) (UniProt Q86YV5). The experiment in a line: AUC; sedimentation velocity of SgK223-PsK-Cter at 4.6 μM; 20 mM Tris-HCl, 150 mM NaCl, pH 8.0, 20 °C; both purified.
The target in the next experiment is T1, Flag-tagged FL SgK223-WT (UniProt Q86YV5).
T1 sequence: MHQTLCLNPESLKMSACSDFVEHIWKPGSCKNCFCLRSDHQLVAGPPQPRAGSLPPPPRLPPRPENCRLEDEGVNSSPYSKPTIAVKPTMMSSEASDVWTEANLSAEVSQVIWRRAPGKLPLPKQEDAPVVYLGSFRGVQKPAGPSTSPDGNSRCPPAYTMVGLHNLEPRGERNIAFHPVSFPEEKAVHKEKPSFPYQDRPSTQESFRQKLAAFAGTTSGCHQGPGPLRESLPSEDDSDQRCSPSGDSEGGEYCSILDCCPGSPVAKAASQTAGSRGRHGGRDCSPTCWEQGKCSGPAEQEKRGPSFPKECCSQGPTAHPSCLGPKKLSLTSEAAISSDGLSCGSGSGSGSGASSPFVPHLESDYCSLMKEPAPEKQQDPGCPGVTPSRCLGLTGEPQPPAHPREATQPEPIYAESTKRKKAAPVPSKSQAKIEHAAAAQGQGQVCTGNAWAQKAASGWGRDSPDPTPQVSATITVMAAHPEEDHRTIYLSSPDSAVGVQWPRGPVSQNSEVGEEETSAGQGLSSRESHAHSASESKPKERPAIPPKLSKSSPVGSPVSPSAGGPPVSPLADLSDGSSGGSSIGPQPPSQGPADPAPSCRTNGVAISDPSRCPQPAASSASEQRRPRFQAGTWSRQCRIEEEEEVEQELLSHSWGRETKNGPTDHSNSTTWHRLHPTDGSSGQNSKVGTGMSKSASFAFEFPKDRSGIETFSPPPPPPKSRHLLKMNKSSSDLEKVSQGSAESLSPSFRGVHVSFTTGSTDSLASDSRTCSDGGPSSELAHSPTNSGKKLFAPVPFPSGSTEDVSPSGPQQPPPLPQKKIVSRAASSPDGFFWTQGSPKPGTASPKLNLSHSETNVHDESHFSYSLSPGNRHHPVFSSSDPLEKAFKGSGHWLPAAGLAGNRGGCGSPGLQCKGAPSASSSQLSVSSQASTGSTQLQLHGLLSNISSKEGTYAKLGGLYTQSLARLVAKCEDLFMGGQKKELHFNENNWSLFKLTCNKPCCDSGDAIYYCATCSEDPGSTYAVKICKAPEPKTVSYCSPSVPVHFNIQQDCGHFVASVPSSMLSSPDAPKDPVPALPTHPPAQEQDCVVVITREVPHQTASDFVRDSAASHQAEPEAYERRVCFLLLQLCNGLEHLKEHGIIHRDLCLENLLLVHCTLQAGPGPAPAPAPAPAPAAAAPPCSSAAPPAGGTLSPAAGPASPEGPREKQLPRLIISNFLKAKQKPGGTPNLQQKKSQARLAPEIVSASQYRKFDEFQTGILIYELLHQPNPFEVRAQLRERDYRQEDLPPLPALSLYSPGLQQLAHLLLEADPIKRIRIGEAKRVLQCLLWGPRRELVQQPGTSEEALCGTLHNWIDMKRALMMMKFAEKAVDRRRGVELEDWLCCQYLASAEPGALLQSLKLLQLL
Briefly: co-IP; Flag-tagged FL SgK223 WT co-expressed with HA-tagged FL SgK223 WT or mutants in HEK293 cells; immunoprecipitation with anti-FLAG, blot with anti-HA.

Experiment [1] concerns the target T2, SgK269-αN1-PsK-Cter F1609A (human) (UniProt Q9H792).
T2 sequence: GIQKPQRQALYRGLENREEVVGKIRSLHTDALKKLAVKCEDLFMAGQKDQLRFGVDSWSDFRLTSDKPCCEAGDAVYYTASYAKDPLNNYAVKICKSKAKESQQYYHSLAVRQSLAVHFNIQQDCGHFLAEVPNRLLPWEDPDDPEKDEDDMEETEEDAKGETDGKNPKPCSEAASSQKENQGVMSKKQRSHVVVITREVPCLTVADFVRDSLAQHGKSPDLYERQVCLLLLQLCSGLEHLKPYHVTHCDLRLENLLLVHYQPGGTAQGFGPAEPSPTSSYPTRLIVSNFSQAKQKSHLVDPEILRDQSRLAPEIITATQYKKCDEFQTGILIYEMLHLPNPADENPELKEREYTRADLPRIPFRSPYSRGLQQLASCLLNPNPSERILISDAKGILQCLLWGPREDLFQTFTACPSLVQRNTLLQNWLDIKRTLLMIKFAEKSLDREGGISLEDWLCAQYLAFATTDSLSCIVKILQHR
The experiment in a line: SEC; SgK223 and SgK269 proteins mixed equimolar at 29.06 μM, 15 min on ice; Superdex 200 Increase 10/300 GL; 20 mM Tris pH 8.5, 200 mM NaCl, 5% glycerol, 1 mM TCEP; preformed homodimers mixed; both purified. On the technique in general: SEC sorts molecules by how far they enter the pores of the column.

A further experiment concerns the target T3, SgK269-αN1-PsK-Cter (WT) (human, UniProt Q9H792 1267-1746).
T3 construct: SgK269 (PEAK1), human, residues 1267-1746: αN1 helix, pseudokinase domain and C-terminal helices; also called SgK269-WT (αN1-PsK-Cter); SgK269-WT; source: E. coli C41(DE3), purified (Ni-NTA, SEC)
T3 sequence (looked up): T2 sequence with A343F
The experiment is described as above.

Numbering of substitutions follows the chain as printed. In names and notes the source's numbering stands. These are yes or no findings as the source states them, for the method shown. For some assays here: In cells and extracts the contact can be indirect. Some results given as binding are weak or reduced against the parent protein; the word gives no strength. For some assays here: Where a sequence is shown, tags or fusion partners need not be part of it.

B1: SgK223-PsK-Cter (domain or fragment, UniProt Q86YV5 975-1406)
chain: MGGQKKELHFNENNWSLFKLTCNKPCCDSGDAIYYCATCSEDPGSTYAVKICKAPEPKTVSYCSPSVPVHFNIQQDCGHFVASVPSSMLSSPDAPKDPVPALPTHPPAQEQDCVVVITREVPHQTASDFVRDSAASHQAEPEAYERRVCFLLLQLCNGLEHLKEHGIIHRDLCLENLLLVHCTLQAGPGPAPAPAPAPAPAAAAPPCSSAAPPAGGTLSPAAGPASPEGPREKQLPRLIISNFLKAKQKPGGTPNLQQKKSQARLAPEIVSASQYRKFDEFQTGILIYELLHQPNPFEVRAQLRERDYRQEDLPPLPALSLYSPGLQQLAHLLLEADPIKRIRIGEAKRVLQCLLWGPRRELVQQPGTSEEALCGTLHNWIDMKRALMMMKFAEKAVDRRRGVELEDWLCCQYLASAEPGALLQSLKLLQLL
In the case of B1, in the experiment with SgK223-PsK-Cter (human), the binding result is reported as “no binding (tested: 4.6 μM)”.

B2: HA-tagged FL SgK223-WT (HEK293) (protein, UniProt Q86YV5 1-1406)
chain: T1 sequence
As to B2, the binding result in the experiment with Flag-tagged FL SgK223-WT is reported as “binds”.

B3: HA-tagged FL SgK223 I1243A (HEK293) (protein, UniProt Q86YV5 1-1406)
chain: T1 sequence with I1243A
B3: the binding entry with Flag-tagged FL SgK223-WT is reported as “binds”.

B4: HA-tagged FL SgK223 Y1282A (HEK293) (protein, UniProt Q86YV5 1-1406)
chain: T1 sequence with Y1282A
Consider B4, for which, in the experiment with Flag-tagged FL SgK223-WT, the binding result was “binds”.

B5: SgK223-αN1-PsK-Cter (WT) (domain or fragment, human, UniProt Q86YV5 932-1406, looked up)
chain: GSTQLQLHGLLSNISSKEGTYAKLGGLYTQSLARLVAKCEDLFMGGQKKELHFNENNWSLFKLTCNKPCCDSGDAIYYCATCSEDPGSTYAVKICKAPEPKTVSYCSPSVPVHFNIQQDCGHFVASVPSSMLSSPDAPKDPVPALPTHPPAQEQDCVVVITREVPHQTASDFVRDSAASHQAEPEAYERRVCFLLLQLCNGLEHLKEHGIIHRDLCLENLLLVHCTLQAGPGPAPAPAPAPAPAAAAPPCSSAAPPAGGTLSPAAGPASPEGPREKQLPRLIISNFLKAKQKPGGTPNLQQKKSQARLAPEIVSASQYRKFDEFQTGILIYELLHQPNPFEVRAQLRERDYRQEDLPPLPALSLYSPGLQQLAHLLLEADPIKRIRIGEAKRVLQCLLWGPRRELVQQPGTSEEALCGTLHNWIDMKRALMMMKFAEKAVDRRRGVELEDWLCCQYLASAEPGALLQSLKLLQLL
notes: SgK223 (Pragmin), human, residues 932-1406: αN1 helix, pseudokinase domain and C-terminal helices; Modified pCOLD IV vector with an N-terminal His TEV cleavage tag; Monomer MW printed as 54 kDa; A seleno-methionine form was also crystallised; also called WT-SgK223-αN1-PsK-Cter; SgK223-WT (αN1-PsK-Cter); source: E. coli C41(DE3), purified (Ni-NTA, SEC)
Consider B5, for which the binding result in experiment [1] was “no binding (tested: 29.06 μM)”.

B6: SgK223-αN1-PsK-Cter Y1282A (domain or fragment, human, UniProt Q86YV5 932-1406, looked up)
chain: B5 chain with Y351A
notes: SgK223 (Pragmin), human, residues 932-1406; source: E. coli C41(DE3), purified (Ni-NTA, SEC)
As for B6, the binding entry with SgK269-αN1-PsK-Cter (WT) was “no binding (tested: 29.06 μM)”.

B7: SgK223 αN1-PsK-Cter I1243A (domain or fragment, human, UniProt Q86YV5 932-1406, looked up)
chain: B5 chain with I312A
notes: as for B6
On to B7, for which the binding entry with SgK269-αN1-PsK-Cter (WT) is “no binding (tested: 29.06 μM)”.

B8: SgK223-αN1-PsK-Cter F1271A (domain or fragment, human, UniProt Q86YV5 932-1406, looked up)
chain: B5 chain with F340A
notes: SgK223 (Pragmin), human, residues 932-1406; also called SgK223-αN1-PsK-Cter Phe1271Ala; His-SgK223-αN1-PsK-Cter; source: E. coli C41(DE3), purified (Ni-NTA, SEC); not shown: His tag, N-terminal, kept
On to B8, for which the binding entry with SgK269-αN1-PsK-Cter (WT) is recorded as “no binding (tested: 29.06 μM)”.
